Results: patent publication US5407911A, “Parathyroid hormone-containing emulsion for nasal administration” (Asahi Kasei Kogyo Kabushiki Kaisha, priority 1991, dated 1995)
Not every detail of the peptide structures is certain; ends, links or a residue may be inferred.

Molecular target: T1, PTH receptor (Rattus norvegicus, UniProt P25961)
T1 construct: a bioassay method using cell membrane of rat kidney cortex; from tissue; host or cells: rat (SD, male) kidney cortex membrane fraction
T1 sequence (P25961 27-591): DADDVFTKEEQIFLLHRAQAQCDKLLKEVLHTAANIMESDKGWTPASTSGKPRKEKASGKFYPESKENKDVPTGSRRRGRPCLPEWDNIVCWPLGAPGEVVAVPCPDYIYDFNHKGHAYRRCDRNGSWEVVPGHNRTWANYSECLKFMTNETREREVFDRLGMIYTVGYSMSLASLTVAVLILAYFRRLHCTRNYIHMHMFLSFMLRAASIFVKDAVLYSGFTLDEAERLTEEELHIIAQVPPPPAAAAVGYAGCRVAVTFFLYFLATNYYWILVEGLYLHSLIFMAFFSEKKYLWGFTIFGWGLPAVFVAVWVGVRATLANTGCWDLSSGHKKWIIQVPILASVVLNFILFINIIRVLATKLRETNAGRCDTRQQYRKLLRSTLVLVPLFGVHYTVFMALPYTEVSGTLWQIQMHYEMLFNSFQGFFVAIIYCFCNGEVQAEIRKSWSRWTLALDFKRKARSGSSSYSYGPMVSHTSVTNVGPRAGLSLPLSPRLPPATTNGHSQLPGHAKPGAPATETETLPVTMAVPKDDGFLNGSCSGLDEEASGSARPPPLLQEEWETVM
Assay: PTH activity bioassay using cell membrane of rat kidney cortex (PTH receptor, generated c-ATP by RIA)
Type: biochemical
Details: relative to standard sample of bovine PTH(1-84)

**Q.** `CC[C@H](C)[C@H](NC(=O)[C@H](CCC(=O)O)NC(=O)[C@H](CO)NC(=O)[C@@H](NC(=O)[C@@H](N)CO)C(C)C)C(=O)N[C@@H](CCC(N)=O)C(=O)N[C@@H](CC(C)C)C(=O)N[C@@H](CCSC)C(=O)N[C@@H](Cc1c[nH]cn1)C(=O)N[C@@H](CC(N)=O)C(=O)N[C@@H](CC(C)C)C(=O)NCC(=O)N[C@@H](CCCCN)C(=O)N[C@@H](Cc1c[nH]cn1)C(=O)N[C@@H](CC(C)C)C(=O)N[C@@H](CC(N)=O)C(=O)N[C@@H](CO)C(=O)N[C@@H](CCSC)C(=O)N[C@@H](CCC(=O)O)C(=O)N[C@@H](CCCNC(=N)N)C(=O)N[C@H](C(=O)N[C@@H](CCC(=O)O)C(=O)N[C@@H](Cc1c[nH]c2ccccc12)C(=O)N[C@@H](CC(C)C)C(=O)N[C@@H](CCCNC(=N)N)C(=O)N[C@@H](CCCCN)C(=O)N[C@@H](CCCCN)C(=O)N[C@@H](CC(C)C)C(=O)N[C@@H](CCC(N)=O)C(=O)N[C@@H](CC(=O)O)C(=O)N[C@H](C(=O)N[C@@H](Cc1c[nH]cn1)C(=O)N[C@@H](CC(N)=O)C(=O)N[C@@H](Cc1ccccc1)C(=O)O)C(C)C)C(C)C` [h-PTH (1-34), teriparatide acetate] was tested. Which “Specific activity (teriparatide acetate unit)” value did it give?
**A.** 3300 Units/mg
